Some of the results follow. Single values are uncertain here, since repeats match poorly.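 HEK293T cells were given each compound shortly before transfection with a reporter in which red mCherry is followed by the SARS-CoV-2 frameshift element and then GFP in the −1 frame, so GFP appears only after frameshifting.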
Columns and labels:
[1] = tested on: SARS-CoV-2 -1 PRF reporter mCherry-FSE-GFP(-1); experiment: mCherry (red) intensity as percent of control; higher = higher upstream reporter expression; settings: 10 µM; 24 h; HEK293T
[2] = tested on: SARS-CoV-2 -1 PRF reporter mCherry-FSE-GFP(-1); experiment: percent effect, decrease of GFP/mCherry ratio (-1 PRF reporter) relative to controls; higher = stronger frameshift inhibition; settings: 10 µM; 24 h; HEK293T

SMILES	mCherry [1] [%]	percent effect [2] [%]
CCc1c2c(nc3ccc(OC(=O)N4CCC(N5CCCCC5)CC4)cc13)-c1cc3c(c(=O)n1C2)COC(=O)[C@]3(O)CC	117	-0.182
Cc1ccc(S(=O)(=O)NC(=O)NN2CCCCCC2)cc1 [Tolazamide]	83.1	-7.04
[O-][S+](c1cc(Cl)cc(Cl)c1O)c1cc(Cl)cc(Cl)c1O [bithionoloxide]	84.9	-2.91
O=c1c(I)c[nH]cc1I [iopydone]	107	-3.48
CC(C)(S)[C@@H](N)C(=O)O [penicillamine]	114	-15.7
O=C1CN2Cc3c(ccc(Cl)c3Cl)N=C2N1 [Anagrelide]	84.6	-4.68
Cc1cc(O)c(Cl)c(C)c1Cl [dichloroxylenol]	78.7	-7.32
CC(=O)OCC1=C(C(=O)O)N2C(=O)[C@@H](NC(=O)CSc3ccncc3)[C@H]2SC1 [cefapirin]	63.2	-4.71
CCn1cc(C(=O)O)c(=O)c2cnc(N3CCCC3)nc21 [piromidic acid]	94.5	-3.35
CCCCc1nc(Cl)c(CO)n1Cc1ccc(-c2ccccc2-c2nnn[nH]2)cc1 [losartan]	94.5	-1.09
O=C(O)C[C@H](O)C[C@H](O)/C=C/c1c(C2CC2)nc2ccccc2c1-c1ccc(F)cc1 [Pitavastatin]	79.9	-4.24
CCCCC(O)c1ccccc1 (stereo not drawn) [fenipentol]	109	0.982
CC(C)(CO)CCCCCCC(C)(C)CO [gemcadiol]	147	-4.24
CN1CCCN=C1/C=C/c1cccs1 [Pyrantel Pamoate]	90.8	-2.89

Some of these compounds in order of molar mass, low to high:
SMILES	mCherry [1] [%]	percent effect [2] [%]
Cc1cc(O)c(Cl)c(C)c1Cl [dichloroxylenol]	78.7	-7.32
O=C(O)C[C@H](O)C[C@H](O)/C=C/c1c(C2CC2)nc2ccccc2c1-c1ccc(F)cc1 [Pitavastatin]	79.9	-4.24
CCc1c2c(nc3ccc(OC(=O)N4CCC(N5CCCCC5)CC4)cc13)-c1cc3c(c(=O)n1C2)COC(=O)[C@]3(O)CC	117	-0.182

Reference: the supplement of paper PMC8256030
